One molecule from patent publication US20210263033A1 can be followed below.

Results are given in words; binding and its absence hold for the method and conditions named. In cells and extracts the contact can be indirect. A yes stands for co-enrichment or nearness to the bait. Other partners may have been found.

Assay [1] deals with T1, Heat shock protein (HSPD1), mitochondrial, Homo sapiens (CH60_HUMAN) (Homo sapiens) (UniProt P10809).
T1 sequence: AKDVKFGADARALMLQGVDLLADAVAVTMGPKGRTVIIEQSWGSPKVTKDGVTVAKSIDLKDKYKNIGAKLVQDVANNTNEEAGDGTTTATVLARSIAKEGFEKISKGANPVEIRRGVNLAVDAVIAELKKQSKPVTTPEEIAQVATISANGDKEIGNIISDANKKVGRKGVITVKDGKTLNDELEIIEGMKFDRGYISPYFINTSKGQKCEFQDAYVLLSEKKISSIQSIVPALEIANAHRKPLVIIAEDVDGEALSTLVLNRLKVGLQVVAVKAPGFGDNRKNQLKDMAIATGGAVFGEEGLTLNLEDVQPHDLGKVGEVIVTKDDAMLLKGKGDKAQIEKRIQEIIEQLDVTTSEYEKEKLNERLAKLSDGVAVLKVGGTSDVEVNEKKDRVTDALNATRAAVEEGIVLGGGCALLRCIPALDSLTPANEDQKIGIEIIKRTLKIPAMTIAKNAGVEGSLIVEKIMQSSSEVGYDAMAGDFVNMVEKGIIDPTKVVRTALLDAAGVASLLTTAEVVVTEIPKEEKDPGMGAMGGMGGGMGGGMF
As to the kind of experiment: pulldown with biotinylated phage on streptavidin Dynal magnetic beads, SDS-PAGE with silver staining, mass spectrometry.

In assay [2] the target is T1, Heat shock protein (HSPD1), mitochondrial, Homo sapiens (CH60_HUMAN) (Homo sapiens). The assay is described as follows: pulldown with biotinylated phage from MDA-MB-231 cells, mass spectrometry identification.

As for LGLRGSL (peptide, not shown: large carriers) [E11 phage (the phage bearing the peptide LGLRGSL (SEQ ID NO: 1))], the binding entry in assay [1] and in assay [2] was “binds” each time.
